Assay results as given in patent US20110182816A1.
Results are given in words; binding and its absence hold for the method and conditions named. Some binding calls cover weakened binding; strength is not graded here.

Sequences of proteins named here, by UniProt entry; tags and fusion partners are left off. A change or cut given only in a name is not applied to a line headed by its entry.
UniProt P02749: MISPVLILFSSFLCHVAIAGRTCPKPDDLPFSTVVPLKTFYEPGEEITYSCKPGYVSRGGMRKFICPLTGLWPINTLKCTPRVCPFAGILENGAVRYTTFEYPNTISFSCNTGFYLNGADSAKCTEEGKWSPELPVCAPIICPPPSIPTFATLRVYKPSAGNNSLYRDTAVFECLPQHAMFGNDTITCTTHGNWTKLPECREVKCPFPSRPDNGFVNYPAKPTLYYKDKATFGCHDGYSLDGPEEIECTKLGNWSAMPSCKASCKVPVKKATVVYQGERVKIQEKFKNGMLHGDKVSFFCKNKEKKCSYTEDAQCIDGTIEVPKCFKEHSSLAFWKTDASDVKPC
UniProt P04114: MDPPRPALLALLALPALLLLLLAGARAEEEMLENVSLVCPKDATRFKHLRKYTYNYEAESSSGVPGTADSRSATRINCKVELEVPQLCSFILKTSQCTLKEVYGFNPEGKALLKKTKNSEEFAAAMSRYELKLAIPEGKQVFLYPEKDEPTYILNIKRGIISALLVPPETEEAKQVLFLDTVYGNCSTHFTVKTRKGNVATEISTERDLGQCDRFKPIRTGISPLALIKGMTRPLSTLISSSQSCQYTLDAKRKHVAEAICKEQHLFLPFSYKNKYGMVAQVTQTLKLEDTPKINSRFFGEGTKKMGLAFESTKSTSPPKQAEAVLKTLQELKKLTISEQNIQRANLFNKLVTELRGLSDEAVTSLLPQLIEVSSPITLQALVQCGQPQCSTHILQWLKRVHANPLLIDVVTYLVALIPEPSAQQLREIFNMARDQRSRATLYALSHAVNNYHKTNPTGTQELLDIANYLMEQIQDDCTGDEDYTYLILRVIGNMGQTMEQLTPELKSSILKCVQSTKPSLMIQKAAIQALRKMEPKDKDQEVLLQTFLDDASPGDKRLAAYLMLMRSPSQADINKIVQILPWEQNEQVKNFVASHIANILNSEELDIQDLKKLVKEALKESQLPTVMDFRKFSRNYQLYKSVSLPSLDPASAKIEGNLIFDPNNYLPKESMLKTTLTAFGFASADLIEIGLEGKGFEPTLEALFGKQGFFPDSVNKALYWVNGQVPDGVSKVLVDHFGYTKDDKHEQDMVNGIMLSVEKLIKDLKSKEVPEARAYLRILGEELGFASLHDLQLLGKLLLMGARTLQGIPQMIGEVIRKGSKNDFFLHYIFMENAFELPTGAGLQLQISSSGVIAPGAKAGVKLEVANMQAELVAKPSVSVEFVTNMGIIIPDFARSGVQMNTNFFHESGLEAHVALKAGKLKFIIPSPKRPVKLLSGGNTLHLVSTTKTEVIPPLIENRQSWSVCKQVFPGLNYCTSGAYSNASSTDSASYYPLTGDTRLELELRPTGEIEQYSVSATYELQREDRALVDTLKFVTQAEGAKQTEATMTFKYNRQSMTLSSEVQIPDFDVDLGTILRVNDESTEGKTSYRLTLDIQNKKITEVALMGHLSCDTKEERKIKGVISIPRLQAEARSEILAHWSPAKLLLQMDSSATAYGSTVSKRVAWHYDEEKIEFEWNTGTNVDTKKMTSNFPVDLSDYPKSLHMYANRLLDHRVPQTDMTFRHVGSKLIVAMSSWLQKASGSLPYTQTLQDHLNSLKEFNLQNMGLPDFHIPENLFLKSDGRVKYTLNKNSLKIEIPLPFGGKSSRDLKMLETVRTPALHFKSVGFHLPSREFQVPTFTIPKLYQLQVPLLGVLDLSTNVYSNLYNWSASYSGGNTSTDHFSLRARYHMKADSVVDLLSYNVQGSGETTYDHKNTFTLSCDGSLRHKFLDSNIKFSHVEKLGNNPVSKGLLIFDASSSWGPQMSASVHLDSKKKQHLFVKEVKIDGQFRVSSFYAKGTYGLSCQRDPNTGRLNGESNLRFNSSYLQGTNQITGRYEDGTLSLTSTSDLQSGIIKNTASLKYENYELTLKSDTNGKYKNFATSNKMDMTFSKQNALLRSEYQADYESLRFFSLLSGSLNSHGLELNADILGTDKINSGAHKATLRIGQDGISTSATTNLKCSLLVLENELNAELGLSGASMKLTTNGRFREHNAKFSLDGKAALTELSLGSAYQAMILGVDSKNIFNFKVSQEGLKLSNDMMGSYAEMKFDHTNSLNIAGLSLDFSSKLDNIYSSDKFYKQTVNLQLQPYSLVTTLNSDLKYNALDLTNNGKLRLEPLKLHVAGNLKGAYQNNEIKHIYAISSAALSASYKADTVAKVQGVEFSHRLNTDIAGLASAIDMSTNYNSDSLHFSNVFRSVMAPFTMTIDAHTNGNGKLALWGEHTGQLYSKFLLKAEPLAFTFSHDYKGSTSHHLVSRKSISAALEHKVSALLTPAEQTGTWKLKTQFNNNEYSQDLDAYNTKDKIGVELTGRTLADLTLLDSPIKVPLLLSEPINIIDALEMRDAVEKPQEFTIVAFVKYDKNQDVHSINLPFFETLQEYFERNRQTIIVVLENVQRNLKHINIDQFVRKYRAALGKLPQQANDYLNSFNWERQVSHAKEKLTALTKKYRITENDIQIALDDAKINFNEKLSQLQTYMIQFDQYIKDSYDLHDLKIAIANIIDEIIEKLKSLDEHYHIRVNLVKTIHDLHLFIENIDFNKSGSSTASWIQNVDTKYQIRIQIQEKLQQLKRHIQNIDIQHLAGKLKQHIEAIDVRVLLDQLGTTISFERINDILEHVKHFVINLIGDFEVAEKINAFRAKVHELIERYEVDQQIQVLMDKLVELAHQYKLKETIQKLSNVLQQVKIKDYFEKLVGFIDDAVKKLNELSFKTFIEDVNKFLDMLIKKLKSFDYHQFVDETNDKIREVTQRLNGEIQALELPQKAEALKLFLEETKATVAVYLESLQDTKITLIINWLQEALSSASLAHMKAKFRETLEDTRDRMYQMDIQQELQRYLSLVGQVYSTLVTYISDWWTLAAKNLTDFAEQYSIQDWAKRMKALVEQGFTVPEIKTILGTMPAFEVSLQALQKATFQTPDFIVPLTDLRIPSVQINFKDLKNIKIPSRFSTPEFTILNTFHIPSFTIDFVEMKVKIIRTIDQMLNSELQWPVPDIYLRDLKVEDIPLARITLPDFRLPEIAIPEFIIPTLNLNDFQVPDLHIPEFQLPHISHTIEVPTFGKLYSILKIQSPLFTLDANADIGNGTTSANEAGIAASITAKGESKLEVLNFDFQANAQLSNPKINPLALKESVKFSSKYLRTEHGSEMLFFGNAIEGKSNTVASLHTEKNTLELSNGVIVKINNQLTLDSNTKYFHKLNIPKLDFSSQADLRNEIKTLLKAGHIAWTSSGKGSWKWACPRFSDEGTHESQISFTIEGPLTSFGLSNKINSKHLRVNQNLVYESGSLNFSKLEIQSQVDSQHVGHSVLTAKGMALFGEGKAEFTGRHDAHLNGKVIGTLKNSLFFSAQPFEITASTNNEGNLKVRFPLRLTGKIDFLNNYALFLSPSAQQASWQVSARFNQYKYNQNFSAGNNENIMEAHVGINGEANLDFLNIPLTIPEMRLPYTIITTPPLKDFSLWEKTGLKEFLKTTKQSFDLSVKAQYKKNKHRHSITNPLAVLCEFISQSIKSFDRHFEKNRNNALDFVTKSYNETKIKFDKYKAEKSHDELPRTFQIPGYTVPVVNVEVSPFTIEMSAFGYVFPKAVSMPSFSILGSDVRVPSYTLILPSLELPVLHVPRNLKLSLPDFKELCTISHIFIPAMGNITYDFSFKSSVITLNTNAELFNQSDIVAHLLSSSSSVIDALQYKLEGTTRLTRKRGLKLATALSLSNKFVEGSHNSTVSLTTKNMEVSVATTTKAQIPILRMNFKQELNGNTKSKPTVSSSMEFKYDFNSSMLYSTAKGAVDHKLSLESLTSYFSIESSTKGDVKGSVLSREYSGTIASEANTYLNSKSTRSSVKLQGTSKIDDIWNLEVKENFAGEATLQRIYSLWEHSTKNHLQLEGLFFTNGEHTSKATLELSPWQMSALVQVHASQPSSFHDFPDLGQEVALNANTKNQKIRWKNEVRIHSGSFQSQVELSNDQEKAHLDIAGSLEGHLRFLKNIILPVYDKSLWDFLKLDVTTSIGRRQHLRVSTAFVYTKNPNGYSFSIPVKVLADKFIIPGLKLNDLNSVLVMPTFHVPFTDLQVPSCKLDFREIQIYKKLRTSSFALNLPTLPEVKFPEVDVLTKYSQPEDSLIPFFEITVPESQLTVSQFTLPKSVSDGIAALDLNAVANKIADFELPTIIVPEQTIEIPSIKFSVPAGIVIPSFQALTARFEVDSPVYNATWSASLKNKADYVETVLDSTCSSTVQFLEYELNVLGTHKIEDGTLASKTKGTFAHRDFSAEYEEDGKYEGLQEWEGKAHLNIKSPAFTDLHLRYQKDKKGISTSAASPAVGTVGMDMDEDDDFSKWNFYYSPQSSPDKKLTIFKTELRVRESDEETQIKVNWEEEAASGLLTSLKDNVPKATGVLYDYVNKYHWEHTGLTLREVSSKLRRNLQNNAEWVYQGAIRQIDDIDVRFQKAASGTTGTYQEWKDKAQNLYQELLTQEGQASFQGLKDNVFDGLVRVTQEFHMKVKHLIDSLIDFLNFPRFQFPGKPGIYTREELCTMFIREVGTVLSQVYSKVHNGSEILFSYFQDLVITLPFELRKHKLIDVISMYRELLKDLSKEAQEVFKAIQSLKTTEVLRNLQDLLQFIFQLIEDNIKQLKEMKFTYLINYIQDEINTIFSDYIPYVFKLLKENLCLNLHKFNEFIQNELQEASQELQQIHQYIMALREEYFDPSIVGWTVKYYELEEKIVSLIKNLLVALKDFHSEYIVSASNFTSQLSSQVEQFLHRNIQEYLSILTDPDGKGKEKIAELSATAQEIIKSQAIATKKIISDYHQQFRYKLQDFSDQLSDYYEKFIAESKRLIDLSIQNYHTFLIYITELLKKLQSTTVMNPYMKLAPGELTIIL

Assays:
[1] = target: T1, human oxidized LDL/β2GPI complex (human) (UniProt P02749+P04114); experiment: ELISA, plate coated with 1 µg/ml oxidized LDL/β2GPI
[2] = target: T1, human oxidized LDL/β2GPI complex (human); experiment: competitive inhibition ELISA, free oxidized LDL/β2GPI complex as competitor
[3] = target: T1, human oxidized LDL/β2GPI complex (human); experiment: competitive inhibition ELISA with free antigen (FIG. 3)
[4] = target: T1, human oxidized LDL/β2GPI complex (human); experiment: hybridoma screening ELISA on coated oxidized LDL/β2GPI complex
[5] = target: T1, human oxidized LDL/β2GPI complex (human); experiment: inhibition ELISA with free antigen
[6] = target: T1, human oxidized LDL/β2GPI complex (human); experiment: ELISA, antibody on immobilized oxidized LDL/β2GPI complex
[7] = target: T1, human oxidized LDL/β2GPI complex (human); experiment: competitive inhibition ELISA, free oxidized LDL/β2GPI complex as competitor against immobilized oxidized LDL/β2GPI (grade of inhibition)

binding [1]: binds
binding [2]: binds
binding [3]: binds
binding [4]: binds
binding [5]: binds
binding [6]: binds
binding [7]: binds
B1: antibody 3H3 (antibody, IgG2b, V domains shown)
VH: EVQLVESGGGLVKPGGSLKLSCAASGFTFSSYAMSWARQTPEKRLEWVATISSGGSYTYYPDSVRGRFTISRDNAKNTLYLQMCSLRSEDTAMYYCARFDGYYAMDYWGQGTSVTVSS
VL: DIVMTQSHKFMSTSVGDRVSITCKASQDVGSAVAWYQQKPGQSPKLLIYWASTRHTGVPDRFTGSGSGTDFTLTISSLQSEDLADYFCQQYSSYPLTFGSGTKLEIK
